{"source": "patent US20190142864A1", "about": "“METHODS AND SYSTEMS, FOR INTERFERING WITH VIABILITY OF BACTERIA AND RELATED ANTIMICROBIALS AND COMPOSITIONS” (CALIFORNIA INSTITUTE OF TECHNOLOGY, priority 2017, published 2019)", "assay_type_in_all_cases": "cell-based, Pseudomonas aeruginosa", "key": {"P. aeruginosa cultures": {"test_system": "P. aeruginosa cultures", "test": "72 hr survival assay with viable-cell counts and chlorate quantification", "conditions": "1 mM chlorate", "experimental": "Viable-cell plate counts were performed by serially diluting samples in phosphate-buffered saline (PBS). Dilutions spanning 7 orders of magnitude were plated on LB agar plates as 10-μl drips. Plates were incubated at 37° C. for ˜20 h, and incubation continued at room temperature (72 hr of total incubation) to allow for the growth of slow-growing colonies. Colonies were counted daily, and numbers of CFU per milliliter were calculated at the end of the incubation period. All viable-cell plate counting was carried out under aerobic conditions."}, "[1]": {"test_system": "P. aeruginosa aggregate biofilms", "test": "Oxygen profiling of treated ABBA samples", "conditions": "after 6 hr treatment; 40 μg/ml tobramycin, 10 mM chlorate"}, "[2]": {"test_system": "P. aeruginosa narG transposon mutant", "test": "Anaerobic adaptation and survival, narG mutant", "conditions": "1 mM chlorate, 72 hr anoxic", "experimental": "Overnight cultures were grown aerobically in LB with 40 mM KNO3, 100 mM L-arabinose, 50 μg ml^−1 gentamicin (for strains containing pMQ72-derived plasmids), and 50 μg ml^−1 kanamycin (for transposon insertion strains). Overnight cultures were pelleted, washed twice in LB with 100 mM L-arabinose to remove antibiotics, and resuspended in LB with 100 mM L-arabinose with or without 1 mM sodium chlorate at high cell density (OD500˜3). Two hundred microliters of resuspended culture was added to 96-well microtiter plates, and the plates were moved to the anaerobic glove box for cells to adapt to the anaerobic lifestyle. After a 72-hr incubation at 33° C., 96-well plates were removed from the anaerobic glove box and viable cells on plates were counted to calculate numbers of CFU per milliliter (described above). Percent survival was calculated for each strain by dividing CFU-permilliliter values from cultures containing chlorate by the average CFU-per-milliliter value from control cultures lacking chlorate and multiplying by 100. CFU-per-milliliter values of untreated control cultures were similar across strains, ranging from 1.0×10^9 to 2.2×10^9. The percentage of chlorate remaining after the 72-hr incubation was determined for each strain by dividing the final chlorate concentration in each culture by the initial chlorate concentration in the medium and multiplying by 100.\nIn these experiments, the wild type (WT) and a narG transposon mutant were used and complemented with narGHJI (encoding Nar structural subunits and assembly proteins) carried by an arabinose-inducible vector or with an empty vector. Because narG mutants cannot grow anaerobically, all strains were grown aerobically, washed and resuspended in fresh medium containing or lacking chlorate, and moved to an anaerobic chamber to adapt to anoxia. Viable-cell plate counts were determined after a 72-hr incubation. While oxic WT cultures are not sensitive to chlorate (FIG. 1), anoxia-adapted cultures show a 5-log decrease in viable-cell counts compared to untreated cultures (FIG. 5A). […]"}}, "data": [{"smiles": "[O-][Cl+2]([O-])O", "note": "[chlorate, sodium chlorate]", "values": [{"measurement": "chlorate consumption by culture", "setting": "P. aeruginosa cultures; anoxic cultures with 40 mM nitrate, during nitrate consumption", "value": "consumed at a seemingly constant rate"}, {"measurement": "chlorate concentrations in culture", "setting": "P. aeruginosa cultures; oxic cultures, 72 hr", "value": "stable"}, {"measurement": "oxygen profile of treated aggregate biofilms", "setting": "[1]", "value": "remain greater than zero"}, {"measurement": "chlorate consumed", "setting": "[2]; nap genes overexpressed in narG mutant background", "value": 15, "unit": "%"}, {"measurement": "chlorate concentrations in culture", "setting": "[2]; narG mutant cultures", "value": "stable"}, {"measurement": "chlorate concentrations in culture", "setting": "[2]; narG mutant-complemented cultures", "value": "decrease"}]}]}
